The source of these data is PMC6294559.

Assay [1] addresses T1, HAC1 TAZ^N (624-716 aa) (Arabidopsis) (UniProt Q9C5X9).
T1 sequence: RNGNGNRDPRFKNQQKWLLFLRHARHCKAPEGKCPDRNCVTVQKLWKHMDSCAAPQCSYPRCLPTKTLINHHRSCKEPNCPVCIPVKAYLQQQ
Description: two-hybrid; NPR1 fragments in pGADT7, HAC1 fragments in pGBKT7, yeast strain AH109; growth on drop-out medium lacking leucine, tryptophan, adenine and histidine with 1 or 3 mM 3-AT.

Assay [2] addresses T2, HAC1 TAZ^C (1575-1667 aa) (Arabidopsis) (UniProt Q9C5X9).
T2 sequence: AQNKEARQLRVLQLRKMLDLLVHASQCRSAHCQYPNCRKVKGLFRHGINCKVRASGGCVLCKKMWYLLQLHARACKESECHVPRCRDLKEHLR
The assay is described as above.

Results are given in words; binding and its absence hold for the method and conditions named. Binding can be weak; no strength is given.

On to “C-terminal region of NPR1 (Arabidopsis) (domain or fragment)”, for which the binding entry in assay [1] and in assay [2] was “binds” in each case.
